In the supplement of paper PMC10331698:
± gives the standard deviation of the averaged measurements. Most entries show no effect beyond the scatter of the controls.

Legend:
Test in all cases: level (log10 ratio to DMSO vehicle control); higher = higher biomarker level / cell amount than vehicle control
[1] = compound: NS(=O)(=O)C(F)(F)C(F)(F)C(F)(F)C(F)(F)C(F)(F)C(F)(F)F [Perfluorohexanesulfonamide]; details: 2200 nM; in DMSO
Method: (§1)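 BioMAP Diversity Plus panel of 12 human primary cell co-culture systems (3C, 4H, LPS, SAg, BT, BF4T, BE3C, CASM3C, HDF3CGF, KF3CT, MyoF, Mphg). Compounds were added 1 h before stimulation and left for 24 h (MyoF 48 h; BT 72 h for soluble read-outs or 6 d for IgG). Biomarkers were read by ELISA, cytotoxicity by SRB, PBMC viability and proliferation by Alamar Blue. Each well value was divided by the mean of 8 DMSO control wells on the same plate and log10 transformed; duplicate blinded samples were tested at 4 concentrations.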

[2] = compound: OCCC(F)(F)C(F)(F)C(F)(F)C(F)(F)F [4:2 Fluorotelomer alcohol]; details: 2200 nM; in DMSO
Method: as §1

Tetrafluorosuccinic acid = compound: O=C(O)C(F)(F)C(F)(F)C(=O)O [Tetrafluorosuccinic acid]; details: 2200 nM; in DMSO
Method: as §1

[3] = compound: C=C(C)C(=O)OCCC(F)(F)C(F)(F)C(F)(F)C(F)(F)C(F)(C(F)(F)F)C(F)(F)F [(Perfluoro-5-methylhexyl)ethyl 2-methylprop-2-enoate]; details: in DMSO
Method: as §1

[4] = compound: COC(=O)CCC(F)(F)C(F)(F)C(F)(F)C(F)(F)F [Methyl 2H,2H,3H,3H-perfluoroheptanoate]; details: 2200 nM; in DMSO
Method: as §1

[5] = compound: O=C(O)C(F)(F)C(F)(F)C(F)(F)C(F)(F)C(F)(F)C(F)(F)C(F)(F)C(F)(F)Cl [9-Chloro-perfluorononanoic acid]; details: in DMSO
Method: as §1

Octafluoroadipamide = compound: NC(=O)C(F)(F)C(F)(F)C(F)(F)C(F)(F)C(N)=O [Octafluoroadipamide]; details: 2200 nM; in DMSO
Method: as §1

[6] = compound: C=C(C)C(=O)OCCC(F)(F)C(F)(F)C(F)(F)C(F)(F)C(F)(F)C(F)(F)C(F)(F)C(F)(F)F [8:2 Fluorotelomer methacrylate]; details: in DMSO
Method: as §1

[7] = compound: FC(F)(F)C(F)(F)C(F)(F)C(F)(F)C(F)(F)CCI [1-Iodo-1H,1H,2H,2H-perfluoroheptane]; details: 2200 nM; in DMSO
Method: as §1

[8] = compound: O=C(O)CCC(F)(F)C(F)(F)C(F)(F)C(F)(F)C(F)(F)F [2H,2H,3H,3H-Perfluorooctanoic acid]; details: 2200 nM; in DMSO
Method: as §1

Nonafluoropentanamide = compound: NC(=O)C(F)(F)C(F)(F)C(F)(F)C(F)(F)F [Nonafluoropentanamide]; details: 2200 nM; in DMSO
Method: as §1

[9] = compound: O=S(=O)(O)CCC(F)(F)C(F)(F)C(F)(F)C(F)(F)C(F)(F)C(F)(F)F [6:2 Fluorotelomer sulfonic acid]; details: in DMSO
Method: as §1

Perfluoropinacol = compound: OC(C(F)(F)F)(C(F)(F)F)C(O)(C(F)(F)F)C(F)(F)F [Perfluoropinacol]; details: in DMSO
Method: as §1

[10] = compound: O=S(=O)(O)C(F)(F)C(F)(F)OC(F)(F)C(F)(F)F [Perfluoro(2-ethoxyethane)sulfonic acid]; details: 2200 nM; in DMSO
Method: as §1

| Test System | level (log10) [1] | level (log10) [2] | level (log10) (Tetrafluorosuccinic acid) | level (log10) ([3]; 740 nM) | level (log10) ([3]; 2200 nM) | level (log10) ([3]; 6700 nM) | level (log10) ([3]; 20000 nM) | level (log10) [4] | level (log10) ([5]; 2200 nM) | level (log10) ([5]; 6700 nM) | level (log10) ([5]; 20000 nM) | level (log10) (Octafluoroadipamide) | level (log10) ([6]; 740 nM) | level (log10) ([6]; 2200 nM) | level (log10) [7] | level (log10) [8] | level (log10) (Nonafluoropentanamide) | level (log10) ([9]; 2200 nM) | level (log10) ([9]; 6700 nM) | level (log10) ([9]; 20000 nM) | level (log10) ([9]; 60000 nM) | level (log10) (Perfluoropinacol; 2200 nM) | level (log10) (Perfluoropinacol; 6700 nM) | level (log10) (Perfluoropinacol; 20000 nM) | level (log10) [10] |
| --- | --- | --- | --- | --- | --- | --- | --- | --- | --- | --- | --- | --- | --- | --- | --- | --- | --- | --- | --- | --- | --- | --- | --- | --- | --- |
| BF4T:CD54/ICAM-1 | -0.0045 ± 0.011 | 0.0005 ± 0.0092 | -0.0155 ± 0.011 | -0.005 ± 0.0014 | -0.013 ± 0.0057 | -0.0065 ± 0.015 | -0.017 ± 0.0099 | -0.0255 ± 0.018 | -0.024 ± 0.014 | -0.0085 ± 0.0021 | -0.0355 ± 0.0064 | -0.004 ± 0.042 | 0.0075 ± 0.023 | -0.0085 ± 0.012 | -0.0045 ± 0.0021 | -0.004 ± 0.025 | 0.0045 ± 0.005 | 0.0065 ± 0.023 | -0.0115 ± 0.00071 | -0.015 ± 0.021 | -0.0095 ± 0.018 | 0.0045 ± 0.005 | -0.0015 ± 0.011 | -0.018 ± 0.0028 | 0.013 ± 0.017 |
| BF4T:CCL2/MCP-1 | -0.034 ± 0.0014 | -0.0305 ± 0.079 | 0.0115 ± 0.019 | 0.0395 ± 0.012 | -0.0015 ± 0.00071 | 0.012 ± 0.011 | 0.0275 ± 0.005 | 0.0185 ± 0.042 | -0.105 ± 0.076 | -0.034 ± 0.028 | -0.0785 ± 0.044 | -0.003 ± 0.047 | 0.0145 ± 0.03 | -0.007 ± 0.023 | 0.007 ± 0.038 | 0.057 ± 0.025 | 0.0245 ± 0.025 | 0.041 ± 0.044 | 0.0035 ± 0.0064 | -0.024 ± 0.028 | -0.0335 ± 0.069 | -0.0005 ± 0.084 | 0.0435 ± 0.032 | -0.0175 ± 0.015 | 0.0455 ± 0.0078 |
| HDF3CGF:Collagen I | 0.0155 ± 0.04 | 0.0725 ± 0.042 | 0.0015 ± 0.063 | 0.043 ± 0.0071 | -0.003 ± 0.085 | 0.0115 ± 0.067 | 0.034 ± 0.092 | 0.0585 ± 0.029 | 0.002 ± 0.089 | -0.0595 ± 0.005 | -0.151 ± 0.0042 | -0.0055 ± 0.03 | -0.0035 ± 0.0021 | -0.0245 ± 0.044 | 0.0435 ± 0.069 | 0.045 ± 0.013 | 0.035 ± 0.065 | 0.013 ± 0.013 | -0.031 ± 0.095 | -0.007 ± 0.086 | 0.056 ± 0.11 | 0.022 ± 0.1 | -0.0205 ± 0.0092 | -0.0685 ± 0.015 | -0.0075 ± 0.069 |
| LPS:CD62E/E-Selectin | -0.0055 ± 0.016 | 0 ± 0.013 | 0.011 ± 0.051 | 0.044 ± 0.013 | 0.0125 ± 0.035 | 0.006 ± 0.0099 | 0.0095 ± 0.012 | -0.0245 ± 0.0092 | 0.017 ± 0.05 | -0.0095 ± 0.033 | 0.034 ± 0.0057 | 0.001 ± 0.023 | 0.0055 ± 0.0064 | 0.0125 ± 0.00071 | -0.0045 ± 0.00071 | 0.016 ± 0.042 | 0.0065 ± 0.0064 | 0.057 ± 0.0099 | 0.034 ± 0.021 | 0.007 ± 0.014 | 0.027 ± 0.023 | -0.008 ± 0.016 | 0.003 ± 0.0085 | -0.027 ± 0.028 | 0.011 ± 0.067 |
| BT:Secreted IgG | -0.024 ± 0.016 | 0.024 ± 0.014 | -0.003 ± 0.031 | -0.026 ± 0.034 | -0.019 ± 0.0042 | -0.0085 ± 0.044 | -0.023 ± 0.0085 | 0.0465 ± 0.0021 | -0.0055 ± 0.054 | 0.0065 ± 0.06 | 0.0175 ± 0.011 | 0.023 ± 0.037 | -0.0025 ± 0.019 | 0.0015 ± 0.018 | -0.001 ± 0.031 | 0.0575 ± 0.022 | 0.0055 ± 0.022 | 0.0065 ± 0.0092 | 0.0005 ± 0.054 | -0.048 ± 0.031 | -0.081 ± 0.048 | 0.0105 ± 0.0078 | -0.322 ± 0.02 | -1.36 | 0.0245 ± 0.032 |
| 3C:CD142/Tissue Factor | 0.0045 ± 0.011 | 0.0105 ± 0.032 | -0.014 ± 0.058 | 0.0145 ± 0.011 | 0.018 ± 0.027 | 0.0205 ± 0.015 | -0.0295 ± 0.046 | -0.0515 ± 0.0078 | 0.001 ± 0.0014 | -0.008 ± 0.057 | 0.025 ± 0.0057 | -0.0035 ± 0.1 | 0.049 ± 0.023 | 0.041 ± 0.024 | 0.0065 ± 0.011 | 0.0105 ± 0.052 | -0.0035 ± 0.035 | 0.0095 ± 0.033 | -0.0065 ± 0.029 | 0.006 ± 0.021 | 0.0155 ± 0.064 | -0.0365 ± 0.018 | -0.0805 ± 0.026 | -0.158 ± 0.0035 | 0.0255 ± 0.039 |
| HDF3CGF:Proliferation 72hr | 0.048 ± 0.021 | -0.056 ± 0.011 | -0.047 ± 0.18 | 0.003 ± 0.0028 | 0.0015 ± 0.0064 | -0.015 ± 0.0028 | -0.014 | -0.032 ± 0.016 | 0.0855 ± 0.057 | 0.101 ± 0.022 | -0.081 ± 0.054 | -0.0025 ± 0.035 | -0.019 ± 0.052 | -0.011 ± 0.064 | -0.0305 ± 0.022 | -0.044 ± 0.0014 | -0.011 ± 0.014 | -0.004 ± 0.023 | 0.0015 ± 0.019 | 0.0725 ± 0.03 | 0.0405 ± 0.036 | -0.0495 ± 0.059 | -0.183 ± 0.044 | -0.39 ± 0.05 | -0.053 ± 0.014 |
| lMphg:CD40 | 0.012 ± 0.0071 | 0.0065 ± 0.0078 | -0.015 ± 0.0085 | 0.0275 ± 0.023 | 0.0145 ± 0.0035 | 0.0035 ± 0.011 | -0.0085 ± 0.0078 | -0.0155 ± 0.00071 | -0.02 ± 0.0014 | -0.0165 ± 0.0064 | -0.0155 ± 0.005 | 0.003 ± 0.014 | -0.0195 ± 0.03 | -0.0115 ± 0.00071 | 0.005 ± 0.04 | -0.005 ± 0.016 | 0.0195 ± 0.042 | -0.011 ± 0.011 | -0.017 ± 0.011 | -0.022 ± 0.028 | -0.05 ± 0.033 | -0.0085 ± 0.046 | -0.0265 ± 0.019 | -0.202 ± 0.03 | -0.002 ± 0.0014 |
| CASM3C:CD87/uPAR | -0.0005 ± 0.0021 | 0.003 ± 0.0057 | -0.0025 ± 0.015 | -0.026 ± 0.023 | -0.046 ± 0.018 | -0.0305 ± 0.013 | -0.035 | -0.0245 ± 0.019 | -0.0195 ± 0.0064 | -0.002 | 0.02 ± 0.0071 | -0.0245 ± 0.047 | 0.0235 ± 0.005 | 0.0245 ± 0.037 | 0.008 ± 0.023 | -0.0155 ± 0.033 | -0.015 ± 0.044 | -0.002 ± 0.023 | 0.003 ± 0.035 | 0.0145 ± 0.019 | -0.0125 ± 0.012 | -0.019 ± 0.05 | -0.0245 ± 0.015 | -0.107 ± 0.018 | 0.006 ± 0.0085 |
| CASM3C:LDLR | -0.005 ± 0.014 | -0.0445 ± 0.0078 | -0.0015 ± 0.011 | -0.022 ± 0.048 | 0.0115 ± 0.098 | -0.032 ± 0.03 | 0.018 ± 0.025 | 0.0305 ± 0.032 | 0.014 ± 0.037 | -0.011 ± 0.013 | -0.0065 ± 0.0021 | -0.0045 ± 0.012 | -0.007 ± 0.0085 | -0.0095 ± 0.00071 | 0.0125 ± 0.011 | 0.0135 ± 0.013 | -0.008 ± 0.02 | 0.0095 ± 0.013 | 0.009 ± 0.0057 | -0.001 ± 0.018 | 0.011 ± 0.04 | -0.055 ± 0.021 | -0.067 ± 0.0014 | -0.0505 ± 0.018 | 0.0085 ± 0.0078 |
